COc1ccc2cc([C@H](C)C(=O)O)ccc2c1
solubility (mole fraction)
Conditions	293.2 K	298.2 K	303.2 K	308.2 K	313.2 K
in ethanol	0.0124	0.0149	0.0198	0.0232	0.0284
in propylene glycol	0.00614	0.00726	0.00861	0.0106	0.0125
in water	4.36e-06	5.13e-06	5.91e-06	6.6e-06	7.68e-06
